Experimental data from the supplement of paper PMC10849652.
Some of the results follow.

Sequences of proteins named here, by UniProt entry; tags and fusion partners are left off. A change or cut given only in a name is not applied to a line headed by its entry.
UniProt Q96IZ6: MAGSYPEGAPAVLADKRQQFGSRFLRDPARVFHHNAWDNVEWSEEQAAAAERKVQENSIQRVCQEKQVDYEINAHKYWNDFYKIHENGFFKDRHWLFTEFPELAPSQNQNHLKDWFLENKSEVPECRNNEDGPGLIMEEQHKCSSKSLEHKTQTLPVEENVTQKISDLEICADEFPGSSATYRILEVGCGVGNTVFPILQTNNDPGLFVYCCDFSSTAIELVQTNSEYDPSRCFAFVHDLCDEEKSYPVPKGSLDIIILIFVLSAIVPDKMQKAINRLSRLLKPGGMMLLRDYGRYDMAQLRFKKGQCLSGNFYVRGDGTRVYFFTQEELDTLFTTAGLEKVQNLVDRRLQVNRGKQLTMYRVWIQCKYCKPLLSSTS
UniProt Q14728: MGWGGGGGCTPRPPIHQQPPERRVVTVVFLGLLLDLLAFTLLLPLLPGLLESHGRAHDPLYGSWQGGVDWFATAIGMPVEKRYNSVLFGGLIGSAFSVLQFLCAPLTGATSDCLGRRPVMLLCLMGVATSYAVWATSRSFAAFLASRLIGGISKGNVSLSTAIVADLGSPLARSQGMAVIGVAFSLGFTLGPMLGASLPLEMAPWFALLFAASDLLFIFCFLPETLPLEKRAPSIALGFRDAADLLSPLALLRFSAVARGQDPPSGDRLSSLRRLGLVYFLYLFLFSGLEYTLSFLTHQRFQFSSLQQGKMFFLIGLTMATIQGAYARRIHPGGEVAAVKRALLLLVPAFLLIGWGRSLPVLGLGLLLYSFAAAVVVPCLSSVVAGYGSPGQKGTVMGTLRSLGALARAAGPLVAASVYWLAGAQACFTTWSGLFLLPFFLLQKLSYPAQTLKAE
UniProt Q9BUT9: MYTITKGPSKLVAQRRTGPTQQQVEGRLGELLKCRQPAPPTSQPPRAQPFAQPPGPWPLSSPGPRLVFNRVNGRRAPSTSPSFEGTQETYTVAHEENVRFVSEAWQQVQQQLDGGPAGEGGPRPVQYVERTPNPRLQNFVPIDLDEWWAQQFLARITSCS
UniProt Q9BV79: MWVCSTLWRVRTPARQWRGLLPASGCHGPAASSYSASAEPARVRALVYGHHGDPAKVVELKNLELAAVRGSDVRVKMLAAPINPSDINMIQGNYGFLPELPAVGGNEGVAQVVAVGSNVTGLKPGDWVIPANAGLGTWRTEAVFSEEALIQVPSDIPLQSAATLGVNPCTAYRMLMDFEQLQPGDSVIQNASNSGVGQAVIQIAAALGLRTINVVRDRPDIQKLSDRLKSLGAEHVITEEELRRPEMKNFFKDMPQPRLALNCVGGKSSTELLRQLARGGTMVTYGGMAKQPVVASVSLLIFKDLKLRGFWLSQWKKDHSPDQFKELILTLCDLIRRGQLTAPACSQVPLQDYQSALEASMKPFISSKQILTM
UniProt Q9HCC0: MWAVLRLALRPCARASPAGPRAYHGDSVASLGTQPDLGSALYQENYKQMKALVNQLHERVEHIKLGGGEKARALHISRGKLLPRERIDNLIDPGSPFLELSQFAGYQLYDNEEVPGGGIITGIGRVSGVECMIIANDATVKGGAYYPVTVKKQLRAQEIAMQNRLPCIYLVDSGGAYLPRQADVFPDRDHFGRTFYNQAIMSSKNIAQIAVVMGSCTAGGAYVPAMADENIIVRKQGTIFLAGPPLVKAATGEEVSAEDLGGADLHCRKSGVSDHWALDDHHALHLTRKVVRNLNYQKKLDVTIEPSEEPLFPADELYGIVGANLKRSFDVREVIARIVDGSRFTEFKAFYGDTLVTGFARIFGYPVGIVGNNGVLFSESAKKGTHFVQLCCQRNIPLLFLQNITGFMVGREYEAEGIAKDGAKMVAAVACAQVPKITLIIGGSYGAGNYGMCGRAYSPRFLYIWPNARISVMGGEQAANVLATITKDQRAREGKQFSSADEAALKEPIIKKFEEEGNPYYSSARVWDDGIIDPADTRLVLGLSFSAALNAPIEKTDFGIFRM
UniProt O43513: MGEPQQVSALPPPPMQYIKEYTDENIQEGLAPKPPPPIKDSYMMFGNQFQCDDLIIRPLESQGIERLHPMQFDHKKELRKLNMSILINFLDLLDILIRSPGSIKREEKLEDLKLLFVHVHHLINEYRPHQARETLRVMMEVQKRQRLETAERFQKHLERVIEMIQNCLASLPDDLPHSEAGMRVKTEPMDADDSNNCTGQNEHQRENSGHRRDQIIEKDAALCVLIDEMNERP
UniProt O95140: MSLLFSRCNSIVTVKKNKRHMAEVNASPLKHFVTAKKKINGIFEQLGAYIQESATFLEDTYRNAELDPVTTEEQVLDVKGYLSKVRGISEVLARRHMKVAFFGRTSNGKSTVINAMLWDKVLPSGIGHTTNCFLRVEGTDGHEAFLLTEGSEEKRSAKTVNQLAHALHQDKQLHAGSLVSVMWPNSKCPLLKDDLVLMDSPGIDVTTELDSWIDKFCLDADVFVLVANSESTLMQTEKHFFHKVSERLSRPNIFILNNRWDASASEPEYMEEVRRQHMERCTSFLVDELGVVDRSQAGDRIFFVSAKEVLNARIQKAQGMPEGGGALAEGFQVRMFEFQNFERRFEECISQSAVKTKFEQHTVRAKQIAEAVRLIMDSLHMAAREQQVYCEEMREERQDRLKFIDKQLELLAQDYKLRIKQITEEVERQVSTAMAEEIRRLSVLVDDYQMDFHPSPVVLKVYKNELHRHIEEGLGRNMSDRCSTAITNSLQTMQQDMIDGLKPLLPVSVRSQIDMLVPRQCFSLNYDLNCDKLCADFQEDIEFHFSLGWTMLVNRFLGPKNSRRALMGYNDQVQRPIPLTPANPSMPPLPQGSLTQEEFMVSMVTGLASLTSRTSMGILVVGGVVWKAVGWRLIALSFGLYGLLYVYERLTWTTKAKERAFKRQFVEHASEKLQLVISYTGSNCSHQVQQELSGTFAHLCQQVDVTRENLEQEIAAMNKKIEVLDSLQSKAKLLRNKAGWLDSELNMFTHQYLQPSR
UniProt P33992: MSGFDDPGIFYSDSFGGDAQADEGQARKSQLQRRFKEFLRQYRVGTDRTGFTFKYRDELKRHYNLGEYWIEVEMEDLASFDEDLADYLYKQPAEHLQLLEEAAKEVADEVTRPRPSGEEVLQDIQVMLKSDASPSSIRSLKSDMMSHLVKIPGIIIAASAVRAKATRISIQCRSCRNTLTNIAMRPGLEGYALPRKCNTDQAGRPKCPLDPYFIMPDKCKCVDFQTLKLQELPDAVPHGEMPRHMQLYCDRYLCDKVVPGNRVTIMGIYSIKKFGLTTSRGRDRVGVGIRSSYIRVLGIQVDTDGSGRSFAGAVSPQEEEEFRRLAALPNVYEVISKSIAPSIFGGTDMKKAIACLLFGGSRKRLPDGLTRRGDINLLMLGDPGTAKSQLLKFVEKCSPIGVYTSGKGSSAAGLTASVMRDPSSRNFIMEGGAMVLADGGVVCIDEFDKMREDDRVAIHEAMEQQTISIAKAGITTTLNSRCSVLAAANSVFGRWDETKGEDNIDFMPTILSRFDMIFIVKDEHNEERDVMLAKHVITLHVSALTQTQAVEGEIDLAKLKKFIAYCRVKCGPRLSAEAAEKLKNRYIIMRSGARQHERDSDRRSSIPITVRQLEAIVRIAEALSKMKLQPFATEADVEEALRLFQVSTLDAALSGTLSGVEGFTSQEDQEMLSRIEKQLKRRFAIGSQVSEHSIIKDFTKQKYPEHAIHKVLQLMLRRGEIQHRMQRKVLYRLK
UniProt O60244: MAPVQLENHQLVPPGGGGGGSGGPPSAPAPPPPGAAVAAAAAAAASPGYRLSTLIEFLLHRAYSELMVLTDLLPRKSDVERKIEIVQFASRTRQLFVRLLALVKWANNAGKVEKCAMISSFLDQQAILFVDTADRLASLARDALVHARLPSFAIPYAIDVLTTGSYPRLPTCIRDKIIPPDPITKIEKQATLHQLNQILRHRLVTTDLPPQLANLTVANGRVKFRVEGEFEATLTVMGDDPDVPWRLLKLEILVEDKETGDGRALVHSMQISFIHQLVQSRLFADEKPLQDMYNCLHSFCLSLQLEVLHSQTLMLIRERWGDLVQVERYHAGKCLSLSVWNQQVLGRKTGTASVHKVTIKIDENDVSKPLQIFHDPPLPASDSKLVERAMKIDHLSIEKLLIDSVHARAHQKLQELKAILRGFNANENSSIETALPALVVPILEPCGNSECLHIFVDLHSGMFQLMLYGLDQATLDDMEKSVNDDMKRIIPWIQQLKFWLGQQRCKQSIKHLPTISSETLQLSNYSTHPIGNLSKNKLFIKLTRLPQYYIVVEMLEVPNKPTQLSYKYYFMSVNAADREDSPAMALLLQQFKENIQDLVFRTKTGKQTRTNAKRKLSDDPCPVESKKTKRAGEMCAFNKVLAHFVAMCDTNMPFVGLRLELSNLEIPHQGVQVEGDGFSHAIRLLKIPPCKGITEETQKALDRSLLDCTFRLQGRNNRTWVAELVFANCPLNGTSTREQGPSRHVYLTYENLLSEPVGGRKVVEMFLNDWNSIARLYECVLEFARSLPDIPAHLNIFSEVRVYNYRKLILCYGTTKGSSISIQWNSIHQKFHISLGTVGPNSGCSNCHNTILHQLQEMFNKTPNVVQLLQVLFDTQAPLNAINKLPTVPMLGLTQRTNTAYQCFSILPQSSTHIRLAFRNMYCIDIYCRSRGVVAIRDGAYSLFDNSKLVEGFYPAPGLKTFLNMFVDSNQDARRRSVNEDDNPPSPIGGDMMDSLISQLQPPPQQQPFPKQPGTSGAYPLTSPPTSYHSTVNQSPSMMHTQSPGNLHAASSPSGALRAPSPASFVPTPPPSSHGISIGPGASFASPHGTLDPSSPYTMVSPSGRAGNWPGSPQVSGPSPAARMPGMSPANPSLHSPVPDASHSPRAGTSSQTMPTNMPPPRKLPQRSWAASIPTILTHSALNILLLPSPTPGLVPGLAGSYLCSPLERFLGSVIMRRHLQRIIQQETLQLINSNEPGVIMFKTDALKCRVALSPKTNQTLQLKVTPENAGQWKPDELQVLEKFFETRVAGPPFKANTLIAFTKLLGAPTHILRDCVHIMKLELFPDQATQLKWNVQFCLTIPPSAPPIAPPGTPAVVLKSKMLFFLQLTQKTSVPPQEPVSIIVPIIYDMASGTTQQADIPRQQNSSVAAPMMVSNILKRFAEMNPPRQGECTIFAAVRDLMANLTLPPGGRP
UniProt P23368: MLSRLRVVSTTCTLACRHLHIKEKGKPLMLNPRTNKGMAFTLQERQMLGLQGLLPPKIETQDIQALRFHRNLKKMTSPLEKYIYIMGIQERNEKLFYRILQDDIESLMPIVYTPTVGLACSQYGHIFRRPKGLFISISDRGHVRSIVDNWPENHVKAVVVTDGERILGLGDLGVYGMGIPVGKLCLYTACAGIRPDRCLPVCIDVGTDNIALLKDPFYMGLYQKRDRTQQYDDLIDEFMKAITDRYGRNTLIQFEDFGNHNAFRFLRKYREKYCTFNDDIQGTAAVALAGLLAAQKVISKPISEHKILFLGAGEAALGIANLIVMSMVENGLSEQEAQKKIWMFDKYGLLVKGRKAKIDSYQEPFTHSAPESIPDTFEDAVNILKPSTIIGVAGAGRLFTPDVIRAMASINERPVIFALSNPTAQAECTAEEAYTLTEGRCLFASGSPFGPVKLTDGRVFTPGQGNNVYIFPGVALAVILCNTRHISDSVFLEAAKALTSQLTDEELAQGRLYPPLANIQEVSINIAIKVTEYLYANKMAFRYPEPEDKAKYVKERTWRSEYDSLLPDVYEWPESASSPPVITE
UniProt Q07820, whole entry, looked up: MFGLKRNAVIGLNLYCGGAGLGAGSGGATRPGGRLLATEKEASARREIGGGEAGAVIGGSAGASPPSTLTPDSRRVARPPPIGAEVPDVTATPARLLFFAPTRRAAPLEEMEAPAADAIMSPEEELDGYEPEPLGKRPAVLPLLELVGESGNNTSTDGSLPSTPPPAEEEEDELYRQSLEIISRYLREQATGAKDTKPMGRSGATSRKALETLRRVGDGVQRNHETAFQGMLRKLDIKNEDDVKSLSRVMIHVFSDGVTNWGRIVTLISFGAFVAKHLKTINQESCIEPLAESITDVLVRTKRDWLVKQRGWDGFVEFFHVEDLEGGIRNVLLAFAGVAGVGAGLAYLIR
UniProt Q9UBB5, whole entry, looked up: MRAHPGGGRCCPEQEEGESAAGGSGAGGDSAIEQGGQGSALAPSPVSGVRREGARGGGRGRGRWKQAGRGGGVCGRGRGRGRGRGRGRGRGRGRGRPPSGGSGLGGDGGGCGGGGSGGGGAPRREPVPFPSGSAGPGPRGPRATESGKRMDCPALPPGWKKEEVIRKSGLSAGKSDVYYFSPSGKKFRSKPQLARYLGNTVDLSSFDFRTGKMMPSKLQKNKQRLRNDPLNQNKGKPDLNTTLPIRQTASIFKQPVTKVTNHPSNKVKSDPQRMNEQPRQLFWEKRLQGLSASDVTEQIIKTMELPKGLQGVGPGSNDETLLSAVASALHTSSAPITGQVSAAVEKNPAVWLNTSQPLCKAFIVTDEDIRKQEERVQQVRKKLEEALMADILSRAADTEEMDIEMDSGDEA

Key:
Assay in all cases: log2 fold change, soluble protein after heating vs DMSO (PISA); higher = thermal stabilisation; K562 lysate, 10 uM; active = over 0.2 and 3.5 SD of the protein, either way, in both replicates (recomputed)
[1] = compound: C=CC(=O)N1CCC[C@@H](n2nc(-c3ccc(Oc4ccccc4)cc3)c3c(N)ncnc32)C1 [ibrutinib]
Summary of the method: (§1)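 Dounce homogenisation of K562 pellets in PBS pH 7.4 with 1 mM MgCl2 produced a crude extract, used at 1 mg/mL protein. Exposure to 10 μM compound lasted 30 min, and aliquots were then heated for 3 min across 48°C-58°C, pooled and brought to 0.5% NP-40 at 4°C. The supernatant after 21,000xg for 90 min was quantified by TMTpro 16plex LC-MS/MS with channel sums equalised. Duplicate values are given as log-two fold change in thermal stability relative to solvent controls.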

[2] = compound: CC(=O)c1cnc2ccc(-c3cc(Cl)c(O)c(Cl)c3)nc2c1N[C@H]1CC[C@H](CN(C)C)CC1
Summary of the method: as §1

[3] = compound: CC(C)(C)Cn1c(N)nc2ccc(-c3[nH]c(C(C)(C)C)nc3-c3ccc(F)cc3)nc21 [ralimetinib]
Summary of the method: as §1

[4] = compound: CC(C)(O)CC(=O)NCCn1ccc2ncnc(Nc3ccc(Oc4cccc(C(F)(F)F)c4)c(Cl)c3)c21
Summary of the method: as §1

[5] = compound: CC(C)C1=C2N=C(C=C(N2N=C1)NCC3=CC=CC=C3)NCCCCCCN
Summary of the method: as §1

[6] = compound: CC1=C(C(CC(=O)N1)C2=CC=C(C=C2)C(F)(F)F)C(=O)NC3=C(C=C4C(=C3)C=NN4)F
Summary of the method: as §1

[7] = compound: CC1=C(C2=C(C=C1)C(=O)C3=CC=CC=C3N2CCCN)C
Summary of the method: as §1

[8] = compound: CC1=C(C=C(C=C1)NC(=O)C2=CC(=CC=C2)C(C)(C)C#N)NC3=CC4=C(C=C3)N=CN(C4=O)C
Summary of the method: as §1

[9] = compound: CC1=C(C=C(C=C1)NC(=O)C2=CC(=CC=C2)N(C)C)NC(=O)C3=CC=C(C=C3)O
Summary of the method: as §1

[10] = compound: CC1=CC=C(C=C1)SC2=C3C=C(SC3=CN=C2)C(=O)N
Summary of the method: as §1

Measured: log2 fold change

METTL2A (UniProt Q96IZ6)
inactive: [1] -0.006 | [2] 0.044 | [3] 0.048 | [4] 0.068 | [5] 0.018 | [6] 0.021 | [7] 0.038 | [8] -0.029 | [9] -0.025 | [10] 0.002

MDC1 (UniProt Q14676)
inactive: [1] 0.036 | [2] -0.007 | [3] 0.024 | [4] -0.03 | [5] 0.005 | [6] 0.002 | [7] 0.024 | [8] 0.013 | [9] -0.033 | [10] 0.003

MFSD10 (UniProt Q14728)
inactive: [1] 0.03 | [2] 0.017 | [3] 0.014 | [4] -0.059 | [5] -0.019 | [6] 0.033 | [7] 0.007 | [8] 0.015 | [9] -0.001 | [10] 0.001

MCMBP (UniProt Q9BTE3)
inactive: [1] 0.001 | [2] -0.007 | [3] 0.016 | [4] 0.038 | [5] -0.009 | [6] 0 | [7] 0.008 | [8] 0.008 | [9] 0.011 | [10] 0.014

MEF2C isoform 5 (UniProt Q06413)
inactive: [1] 0.026 | [2] -0.035 | [3] -0.06 | [4] -0.013 | [5] -0.021 | [6] -0.057 | [7] -0.018 | [8] 0.071 | [9] 0.023 | [10] -0.046

METAP2 (UniProt P50579)
inactive: [1] 0.025 | [2] -0.011 | [3] 0.006 | [4] -0.029 | [5] 0.015 | [6] -0.025 | [7] -0.026 | [8] 0.004 | [9] -0.018 | [10] -0.022

MCOLN1 (UniProt Q9GZU1)
inactive: [1] 0.018 | [2] 0.036 | [3] 0.065 | [4] 0.071 | [5] -0.252 | [6] 0.213 | [7] 0.101 | [8] 0.01 | [9] -0.045 | [10] -0.018

MCRIP2 (UniProt Q9BUT9)
inactive: [1] 0.124 | [2] 0.023 | [3] 0.022 | [4] -0.035 | [5] -0.049 | [6] -0.087 | [7] 0.059 | [8] 0.039 | [9] -0.038 | [10] -0.049

MEF2A (UniProt Q02078)
inactive: [1] 0.055 | [2] 0.08 | [3] -0.033 | [4] -0.048 | [5] 0.076 | [6] -0.07 | [7] 0.028 | [8] 0 | [9] 0.052 | [10] 0.012

METTL1 (UniProt Q9UBP6)
inactive: [1] 0.011 | [2] 0.016 | [3] 0.004 | [4] 0.052 | [5] -0.005 | [6] 0.005 | [7] 0.025 | [8] -0.029 | [9] -0.016 | [10] 0.045

MECR (UniProt Q9BV79)
inactive: [1] 0.025 | [2] -0.029 | [3] -0.006 | [4] -0.049 | [5] 0.008 | [6] 0.008 | [7] 0.058 | [8] -0.006 | [9] 0.006 | [10] 0.011

MED27 (UniProt Q6P2C8)
inactive: [1] 0.025 | [2] -0.008 | [3] 0.005 | [4] -0.039 | [5] 0.004 | [6] -0.14 | [7] 0.025 | [8] 0.017 | [9] 0.011 | [10] 0.003

MED25 isoform 3 (UniProt Q71SY5)
inactive: [1] -0.034 | [2] 0.001 | [3] -0.071 | [4] 0.045 | [5] -0.023 | [6] 0.038 | [7] -0.039 | [8] 0.035 | [9] 0.057 | [10] 0.025

MCCC2 (UniProt Q9HCC0)
inactive: [1] -0.001 | [2] -0.008 | [3] 0.001 | [4] 0.007 | [5] -0.003 | [6] 0.016 | [7] 0 | [8] 0.018 | [9] -0.003 | [10] -0.025

MED15 (UniProt Q96RN5)
inactive: [1] 0.024 | [2] -0.024 | [3] 0.014 | [4] 0.023 | [5] 0.014 | [6] 0.024 | [7] -0.033 | [8] -0.003 | [9] 0.006 | [10] 0.009

MFAP1 (UniProt P55081)
inactive: [1] 0.05 | [2] -0.012 | [3] -0.023 | [4] 0.021 | [5] -0.026 | [6] 0.001 | [7] 0.017 | [8] -0.001 | [9] -0.03 | [10] -0.035

MED7 (UniProt O43513)
inactive: [1] 0.071 | [2] 0.012 | [3] 0.163 | [4] -0.057 | [5] -0.066 | [6] -0.054 | [7] 0.032 | [8] -0.043 | [9] -0.027 | [10] -0.037

MED12 isoform 2 (UniProt Q93074)
inactive: [1] 0.004 | [2] -0.019 | [3] 0.022 | [4] -0.009 | [5] -0.005 | [6] 0.009 | [7] 0.003 | [8] -0.005 | [9] 0.037 | [10] 0.02

Five successive records already listed:
MED25 isoform 3 (UniProt Q71SY5)
inactive: [1] -0.034 | [2] 0.001 | [3] -0.071 | [4] 0.045 | [5] -0.023 | [6] 0.038 | [7] -0.039 | [8] 0.035 | [9] 0.057 | [10] 0.025

MCCC2 (UniProt Q9HCC0)
inactive: [1] -0.001 | [2] -0.008 | [3] 0.001 | [4] 0.007 | [5] -0.003 | [6] 0.016 | [7] 0 | [8] 0.018 | [9] -0.003 | [10] -0.025

MED15 (UniProt Q96RN5)
inactive: [1] 0.024 | [2] -0.024 | [3] 0.014 | [4] 0.023 | [5] 0.014 | [6] 0.024 | [7] -0.033 | [8] -0.003 | [9] 0.006 | [10] 0.009

MFAP1 (UniProt P55081)
inactive: [1] 0.05 | [2] -0.012 | [3] -0.023 | [4] 0.021 | [5] -0.026 | [6] 0.001 | [7] 0.017 | [8] -0.001 | [9] -0.03 | [10] -0.035

MED7 (UniProt O43513)
inactive: [1] 0.071 | [2] 0.012 | [3] 0.163 | [4] -0.057 | [5] -0.066 | [6] -0.054 | [7] 0.032 | [8] -0.043 | [9] -0.027 | [10] -0.037

Later entries.

MFN2 (UniProt O95140)
inactive: [1] -0.035 | [2] -0.012 | [3] 0.015 | [4] 0.034 | [5] -0.013 | [6] -0.007 | [7] 0.008 | [8] 0.02 | [9] 0.039 | [10] -0.013

MCM10 (UniProt Q7L590)
inactive: [1] 0.101 | [2] 0.04 | [3] 0.005 | [4] -0.008 | [5] 0.141 | [6] 0.012 | [7] -0.049 | [8] 0.079 | [9] -0.018 | [10] -0.06

MEIS2 (UniProt O14770)
inactive: [1] -0.024 | [2] 0.011 | [3] 0.012 | [4] 0.01 | [5] 0.04 | [6] 0.025 | [7] 0.019 | [8] 0.039 | [9] 0.033 | [10] -0.036

MAVS (UniProt Q7Z434)
inactive: [1] 0.087 | [2] 0.016 | [3] 0.016 | [4] -0.05 | [5] 0.024 | [6] 0.055 | [7] -0.002 | [8] 0 | [9] 0.022 | [10] -0.001

MCM5 (UniProt P33992)
inactive: [1] 0.004 | [2] -0.015 | [3] -0.006 | [4] 0.038 | [5] 0.003 | [6] -0.023 | [7] -0.017 | [8] -0.003 | [9] -0.01 | [10] 0.022

MBOAT7 (UniProt Q96N66)
inactive: [1] -0.019 | [2] -0.002 | [3] 0.002 | [4] -0.007 | [5] 0.018 | [6] 0.029 | [7] -0.008 | [8] 0.004 | [9] -0.009 | [10] -0.014

MCMBP isoform 2 (UniProt Q9BTE3)
inactive: [1] -0.032 | [2] -0.055 | [3] -0.138 | [4] 0.068 | [5] 0.114 | [6] -0.111 | [7] -0.05 | [8] 0.063 | [9] 0.12 | [10] 0.005

MED14 (UniProt O60244)
inactive: [1] 0.002 | [2] -0.013 | [3] 0.017 | [4] -0.022 | [5] 0.01 | [6] 0.021 | [7] -0.029 | [8] -0.019 | [9] 0.013 | [10] 0.018

ME2 (UniProt P23368)
inactive: [1] 0.003 | [2] -0.004 | [3] -0.005 | [4] 0.029 | [5] -0.042 | [6] -0.011 | [7] -0.029 | [8] 0.008 | [9] -0.001 | [10] 0.021

MCL1 (UniProt Q07820)
inactive: [1] 0.042 | [2] 0.052 | [3] 0.051 | [4] -0.006 | [5] -0.083 | [6] -0.05 | [7] 0.039 | [8] 0.029 | [9] 0.015 | [10] -0.032

METAP1 (UniProt P53582)
inactive: [1] 0.119 | [2] -0.009 | [3] -0.011 | [4] 0.001 | [5] 0.024 | [6] -0.006 | [7] 0.009 | [8] 0.047 | [9] -0.039 | [10] -0.005

MBD2 (UniProt Q9UBB5)
inactive: [1] 0.013 | [2] 0.018 | [3] -0.043 | [4] -0.03 | [5] 0.016 | [6] -0.013 | [7] -0.017 | [8] -0.053 | [9] -0.048 | [10] 0.007
